Data published in US20160000849A1, “COMPOSITION FOR REMEDYING OR TREATING RHEUMATOID ARTHRITIS AND OSTEOARTHRITIS” (HANPOONG PHARM & FOODS CO., LTD., priority 2013, published 2016).
For at least one compound, name, drawing or mass did not settle the structure.

What was measured:
[1] = system: zymosan-induced acute arthritis model; assay: Paw withdrawal test (allodynia, hyperalgesia) in zymosan-induced acute arthritis model; assay type: in vivo, SD rats; settings: 100 mg/kg oral, compared with vehicle
[2] = system: zymosan-induced acute arthritis model; assay: Paw edema in zymosan-induced acute arthritis model; assay type: in vivo, SD rats; settings: 100 mg/kg oral 1 hour before zymosan; 3 hours after zymosan; FIG. 6

## Cc1ccc(-c2cc(C(F)(F)F)nn2-c2ccc(S(N)(=O)=O)cc2)cc1 [celecoxib]
[1]; FIG. 7
  threshold value of the mechanical stimulus (mechanical allodynia): higher than that in the vehicle-administered group
[1]; thermal stimulus, FIG. 9
  paw withdrawal latency (thermal hyperalgesia): shorter than that in the vehicle-administered group
[2]
  volume of edema compared with other groups: smaller than that in the vehicle-administered group, but greater than that in the group administered with 100 mg/kg of HPL-1
